For 1 molecule, binding results are on record in US20120058051A1 (US Dept. of Health and Human Services, published 2012).

Protein sequences, listed by entry. Tags and fused reporters are not part of them. Residues count along the entry.
Fc-hROR1(d1d2) (Q01973, residues 30-307): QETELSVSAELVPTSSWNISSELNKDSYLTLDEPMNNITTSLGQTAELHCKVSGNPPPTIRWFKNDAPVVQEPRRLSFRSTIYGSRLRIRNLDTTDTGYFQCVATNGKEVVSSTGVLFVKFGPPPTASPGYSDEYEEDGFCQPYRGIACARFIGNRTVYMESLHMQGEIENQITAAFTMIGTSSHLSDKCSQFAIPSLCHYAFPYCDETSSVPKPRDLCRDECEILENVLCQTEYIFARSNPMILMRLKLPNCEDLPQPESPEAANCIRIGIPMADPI
Fc-hROR(d1) (Q01973, residues 30-160): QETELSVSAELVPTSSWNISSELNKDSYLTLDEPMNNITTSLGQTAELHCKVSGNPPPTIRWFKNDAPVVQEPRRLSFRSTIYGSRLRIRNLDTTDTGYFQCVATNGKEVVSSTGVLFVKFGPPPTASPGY

For assay [1], the target named is Fc-hROR1(d1d2) (human) (UniProt Q01973). Description: ELISA, coated construct; score ++.
Assay [2] deals with Fc-hROR(d1) (human) (UniProt Q01973). Description: ELISA, coated construct; score +.

These are yes or no findings as the source states them, for the method shown. Some results given as binding are weak or reduced against the parent protein; the word gives no strength.

B1: mouse monoclonal antibody (mAb) 2A2 (antibody, mouse IgG1, V domains shown)
VH: QVQLQQSGAELVRPGASVTLSCKASGYTFSDYEMHWVIQTPVHGLEWIGAIDPETGGTAYNQKFKGKAILTADKSSSTAYMELRSLTSEDSAVYYCTGYYDYDSFTYWGQGTLVTVSA
VL: DIVMTQSQKIMSTTVGDRVSITCKASQNVDAAVAWYQQKPGQSPKLLIYSASNRYTGVPDRFTGSGSGTDFTLTISNMQSEDLADYFCQQYDIYPYTFGGGTKLEIK
notes: also called mouse mAb 2A2
Take B1: the binding entry in assay [1] and in assay [2] was “binds” each time.
